Data from publication PMC12065913.
Results are given in words; binding and its absence hold for the method and conditions named. Some results given as binding are weak or reduced against the parent protein; the word gives no strength. Blank lines part the entries; values can stand above or below the binder they belong to.

Protein sequences, listed by entry. Tags and fused reporters are not part of them.
UniProt P0A850: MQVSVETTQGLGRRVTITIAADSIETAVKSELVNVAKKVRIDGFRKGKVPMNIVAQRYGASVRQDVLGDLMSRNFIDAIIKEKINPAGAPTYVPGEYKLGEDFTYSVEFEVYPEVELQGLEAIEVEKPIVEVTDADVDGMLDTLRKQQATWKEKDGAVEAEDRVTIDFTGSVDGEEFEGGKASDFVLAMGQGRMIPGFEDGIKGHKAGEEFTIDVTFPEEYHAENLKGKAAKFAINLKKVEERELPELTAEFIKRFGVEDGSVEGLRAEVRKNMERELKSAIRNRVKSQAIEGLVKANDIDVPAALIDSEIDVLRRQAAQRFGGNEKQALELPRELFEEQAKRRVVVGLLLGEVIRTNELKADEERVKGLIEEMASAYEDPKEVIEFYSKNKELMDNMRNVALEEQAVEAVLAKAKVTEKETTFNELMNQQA
UniProt P0A6F5: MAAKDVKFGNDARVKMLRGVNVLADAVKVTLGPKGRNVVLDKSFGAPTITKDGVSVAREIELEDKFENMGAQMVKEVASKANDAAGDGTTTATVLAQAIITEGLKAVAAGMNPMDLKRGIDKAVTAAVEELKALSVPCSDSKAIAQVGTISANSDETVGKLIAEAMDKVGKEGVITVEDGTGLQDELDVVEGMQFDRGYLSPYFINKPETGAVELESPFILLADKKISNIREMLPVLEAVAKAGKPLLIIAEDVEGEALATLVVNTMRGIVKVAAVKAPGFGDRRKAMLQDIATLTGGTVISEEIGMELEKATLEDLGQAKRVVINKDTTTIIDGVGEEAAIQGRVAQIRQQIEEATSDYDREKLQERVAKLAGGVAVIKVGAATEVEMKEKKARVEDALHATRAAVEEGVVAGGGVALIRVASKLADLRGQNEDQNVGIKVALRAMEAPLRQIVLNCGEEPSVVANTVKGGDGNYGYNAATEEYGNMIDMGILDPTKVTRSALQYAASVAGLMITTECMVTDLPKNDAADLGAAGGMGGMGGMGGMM
UniProt P0A6Y8: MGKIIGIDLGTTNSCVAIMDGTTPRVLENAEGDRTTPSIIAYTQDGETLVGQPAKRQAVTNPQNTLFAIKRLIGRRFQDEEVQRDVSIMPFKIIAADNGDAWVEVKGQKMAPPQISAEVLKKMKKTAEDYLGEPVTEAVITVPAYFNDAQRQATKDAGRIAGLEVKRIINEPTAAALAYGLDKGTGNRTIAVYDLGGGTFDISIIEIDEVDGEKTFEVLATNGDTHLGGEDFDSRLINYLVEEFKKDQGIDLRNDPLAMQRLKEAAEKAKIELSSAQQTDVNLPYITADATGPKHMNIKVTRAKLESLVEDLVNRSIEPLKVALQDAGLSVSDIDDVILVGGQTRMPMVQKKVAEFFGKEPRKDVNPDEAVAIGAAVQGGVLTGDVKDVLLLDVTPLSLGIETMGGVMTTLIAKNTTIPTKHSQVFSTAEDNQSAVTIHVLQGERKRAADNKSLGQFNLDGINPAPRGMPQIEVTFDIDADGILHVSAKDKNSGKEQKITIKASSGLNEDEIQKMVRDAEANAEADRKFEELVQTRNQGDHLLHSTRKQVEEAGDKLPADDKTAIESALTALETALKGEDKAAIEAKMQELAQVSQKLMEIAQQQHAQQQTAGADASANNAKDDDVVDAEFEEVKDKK

Columns and labels:
Trigger Factor (E. coli) = Trigger Factor (E. coli) (UniProt P0A850); assay: selective ribosome profiling (affinity purification of chaperone-bound ribosome-nascent chain complexes, sequencing of the mRNA footprints); TF-TEV-Avi affinity purified from lysate of Δtig::tig-TEV-Avi cells, no chemical cross-linking; selected translatome normalised by the total …
[1] = target: GroEL (E. coli (endogenous in MC4100)) (UniProt P0A6F5); assay: selective ribosome profiling (immunoprecipitation of chaperone-bound ribosome-nascent chain complexes, sequencing of the mRNA footprints); GroEL immunoprecipitated with anti-GroEL antibody from ATP-depleted lysate cross-linked with 60 mM EDC; WT, Δtig and ΔdnaK strain backgrounds; selected translatome normalised by the total translatome
[2] = target: DnaK (E. coli (endogenous in E. coli cells)) (UniProt P0A6Y8); assay: selective ribosome profiling (SeRP); immunoprecipitation of DnaK (anti-DnaK antibody on Dynabeads) with ribosome-nascent chain complexes; ATP depleted with hexokinase; MNase digest, sucrose cushion; ribosome footprints sequenced
[3] = target: Trigger Factor (tig-TEV-Avi) (E. coli) (UniProt P0A850); assay: selective ribosome profiling (SeRP); affinity purification of TF-TEV-Avi with ribosome-nascent chain complexes from E. coli lysate, no chemical cross-linking; ribosome footprints sequenced, enrichment over the total translatome

B2: nascent BarA (protein, UniProt P0AEC5 1-918)
chain: MTNYSLRARMMILILAPTVLIGLLLSIFFVVHRYNDLQRQLEDAGASIIEPLAVSTEYGMSLQNRESIGQLISVLHRRHSDIVRAISVYDENNRLFVTSNFHLDPSSMQLGSNVPFPRQLTVTRDGDIMILRTPIISESYSPDESPSSDAKNSQNMLGYIALELDLKSVRLQQYKEIFISSVMMLFCIGIALIFGWRLMRDVTGPIRNMVNTVDRIRRGQLDSRVEGFMLGELDMLKNGINSMAMSLAAYHEEMQHNIDQATSDLRETLEQMEIQNVELDLAKKRAQEAARIKSEFLANMSHELRTPLNGVIGFTRLTLKTELTPTQRDHLNTIERSANNLLAIINDVLDFSKLEAGKLILESIPFPLRSTLDEVVTLLAHSSHDKGLELTLNIKSDVPDNVIGDPLRLQQIITNLVGNAIKFTENGNIDILVEKRALSNTKVQIEVQIRDTGIGIPERDQSRLFQAFRQADASISRRHGGTGLGLVITQKLVNEMGGDISFHSQPNRGSTFWFHINLDLNPNIIIEGPSTQCLAGKRLAYVEPNSAAAQCTLDILSETPLEVVYSPTFSALPPAHYDMMLLGIAVTFREPLTMQHERLAKAVSMTDFLMLALPCHAQVNAEKLKQDGIGACLLKPLTPTRLLPALTEFCHHKQNTLLPVTDESKLAMTVMAVDDNPANLKLIGALLEDMVQHVELCDSGHQAVERAKQMPFDLILMDIQMPDMDGIRACELIHQLPHQQQTPVIAVTAHAMAGQKEKLLGAGMSDYLAKPIEEERLHNLLLRYKPGSGISSRVVTPEVNEIVVNPNATLDWQLALRQAAGKTDLARDMLQMLLDFLPEVRNKVEEQLVGENPEGLVDLIHKLHGSCGYSGVPRMKNLCQLIEQQLRSGTKEEDLEPELLELLDEMDNVAREASKILG
binding [1]: binds
binding [2]: binds

B3: nascent AspC (protein, UniProt P00509 1-396)
chain: MFENITAAPADPILGLADLFRADERPGKINLGIGVYKDETGKTPVLTSVKKAEQYLLENETTKNYLGIDGIPEFGRCTQELLFGKGSALINDKRARTAQTPGGTGALRVAADFLAKNTSVKRVWVSNPSWPNHKSVFNSAGLEVREYAYYDAENHTLDFDALINSLNEAQAGDVVLFHGCCHNPTGIDPTLEQWQTLAQLSVEKGWLPLFDFAYQGFARGLEEDAEGLRAFAAMHKELIVASSYSKNFGLYNERVGACTLVAADSETVDRAFSQMKAAIRANYSNPPAHGASVVATILSNDALRAIWEQELTDMRQRIQRMRQLFVNTLQEKGANRDFSFIIKQNGMFSFSGLTKEQVLRLREEFGVYAVASGRVNVAGMTPDNMAPLCEAIVAVL
binding [3]: binds
binding [2]: binds

B5: nascent DeoC (protein, UniProt P0A6L0 1-259)
chain: MTDLKASSLRALKLMDLTTLNDDDTDEKVIALCHQAKTPVGNTAAICIYPRFIPIARKTLKEQGTPEIRIATVTNFPHGNDDIDIALAETRAAIAYGADEVDVVFPYRALMAGNEQVGFDLVKACKEACAAANVLLKVIIETGELKDEALIRKASEISIKAGADFIKTSTGKVAVNATPESARIMMEVIRDMGVEKTVGFKPAGGVRTAEDAQKYLAIADELFGADWADARHYRFGASSLLASLLKALGHGDGKSASSY
binding [3]: binds
binding [2]: binds

Other lines, results leading:

binding (Trigger Factor (E. coli)): binds
B1: nascent LolA (protein, UniProt P61316 22-203)
chain: DAASDLKSRLDKVSSFHASFTQKVTDGSGAAVQEGQGDLWVKRPNLFNWHMTQPDESILVSDGKTLWFYNPFVEQATATWLKDATGNTPFMLIARNQSSDWQQYNIKQNGDDFVLTPKASNGNLKQFTINVGRDGTIHQFSAVEQDDQRSSYQLKSQQNGAVDAAKFTFTPPQGVTVDDQRK

binding (Trigger Factor (E. coli)): binds
B4: nascent OppA (protein, UniProt P23843 27-543)
chain: ADVPAGVTLAEKQTLVRNNGSEVQSLDPHKIEGVPESNISRDLFEGLLVSDLDGHPAPGVAESWDNKDAKVWTFHLRKDAKWSDGTPVTAQDFVYSWQRSVDPNTASPYASYLQYGHIAGIDEILEGKKPITDLGVKAIDDHTLEVTLSEPVPYFYKLLVHPSTSPVPKAAIEKFGEKWTQPGNIVTNGAYTLKDWVVNERIVLERSPTYWNNAKTVINQVTYLPIASEVTDVNRYRSGEIDMTNNSMPIELFQKLKKEIPDEVHVDPYLCTYYYEINNQKPPFNDVRVRTALKLGMDRDIIVNKVKAQGNMPAYGYTPPYTDGAKLTQPEWFGWSQEKRNEEAKKLLAEAGYTADKPLTINLLYNTSDLHKKLAIAASSLWKKNIGVNVKLVNQEWKTFLDTRHQGTFDVARAGWCADYNEPTSFLNTMLSNSSMNTAHYKSPAFDSIMAETLKVTDEAQRTALYTKAEQQLDKDSAIVPVYYYVNARLVKPWVGGYTGKDPLDNTYTRNMYIVKH

binding [2]: binds
B6: nascent FtsK (protein, UniProt P46889 1-1329)
chain: MSQEYIEDKEVTLTKLSSGRRLLEALLILIVLFAVWLMAALLSFNPSDPSWSQTAWHEPIHNLGGMPGAWLADTLFFIFGVMAYTIPVIIVGGCWFAWRHQSSDEYIDYFAVSLRIIGVLALILTSCGLAAINADDIWYFASGGVIGSLLSTTLQPLLHSSGGTIALLCVWAAGLTLFTGWSWVTIAEKLGGWILNILTFASNRTRRDDTWVDEDEYEDDEEYEDENHGKQHESRRARILRGALARRKRLAEKFINPMGRQTDAALFSGKRMDDDEEITYTARGVAADPDDVLFSGNRATQPEYDEYDPLLNGAPITEPVAVAAAATTATQSWAAPVEPVTQTPPVASVDVPPAQPTVAWQPVPGPQTGEPVIAPAPEGYPQQSQYAQPAVQYNEPLQQPVQPQQPYYAPAAEQPAQQPYYAPAPEQPVAGNAWQAEEQQSTFAPQSTYQTEQTYQQPAAQEPLYQQPQPVEQQPVVEPEPVVEETKPARPPLYYFEEVEEKRAREREQLAAWYQPIPEPVKEPEPIKSSLKAPSVAAVPPVEAAAAVSPLASGVKKATLATGAAATVAAPVFSLANSGGPRPQVKEGIGPQLPRPKRIRVPTRRELASYGIKLPSQRAAEEKAREAQRNQYDSGDQYNDDEIDAMQQDELARQFAQTQQQRYGEQYQHDVPVNAEDADAAAEAELARQFAQTQQQRYSGEQPAGANPFSLDDFEFSPMKALLDDGPHEPLFTPIVEPVQQPQQPVAPQQQYQQPQQPVPPQPQYQQPQQPVAPQPQYQQPQQPVAPQQQYQQPQQPVAPQQQYQQPQQPVAPQPQDTLLHPLLMRNGDSRPLHKPTTPLPSLDLLTPPPSEVEPVDTFALEQMARLVEARLADFRIKADVVNYSPGPVITRFELNLAPGVKAARISNLSRDLARSLSTVAVRVVEVIPGKPYVGLELPNKKRQTVYLREVLDNAKFRDNPSPLTVVLGKDIAGEPVVADLAKMPHLLVAGTTGSGKSVGVNAMILSMLYKAQPEDVRFIMIDPKMLELSVYEGIPHLLTEVVTDMKDAANALRWCVNEMERRYKLMSALGVRNLAGYNEKIAEADRMMRPIPDPYWKPGDSMDAQHPVLKKEPYIVVLVDEFADLMMTVGKKVEELIARLAQKARAAGIHLVLATQRPSVDVITGLIKANIPTRIAFTVSSKIDSRTILDQAGAESLLGMGDMLYSGPNSTLPVRVHGAFVRDQEVHAVVQDWKARGRPQYVDGITSDSESEGGAGGFDGAEELDPLFDQAVQFVTEKRKASISGVQRQFRIGYNRAARIIEQMEAQGIVSEQGHNGNREVLAPPPFD
